PMC7956269
These are yes or no findings as the source states them, for the method shown. In cells and extracts the contact can be indirect. Here binding means that the protein was enriched with, or labelled near, the bait; the list need not be complete. Where a sequence is shown, tags or fusion partners need not be part of it.

B1: Cpsf2 (protein, UniProt Q9P2I0 1-782)
chain: MTSIIKLTTLSGVQEESALCYLLQVDEFRFLLDCGWDEHFSMDIIDSLRKHVHQIDAVLLSHPDPLHLGALPYAVGKLGLNCAIYATIPVYKMGQMFMYDLYQSRHNTEDFTLFTLDDVDAAFDKIQQLKFSQIVNLKGKGHGLSITPLPAGHMIGGTIWKIVKDGEEEIVYAVDFNHKREIHLNGCSLEMLSRPSLLITDSFNATYVQPRRKQRDEQLLTNVLETLRGDGNVLIAVDTAGRVLELAQLLDQIWRTKDAGLGVYSLALLNNVSYNVVEFSKSQVEWMSDKLMRCFEDKRNNPFQFRHLSLCHGLSDLARVPSPKVVLASQPDLECGFSRDLFIQWCQDPKNSIILTYRTTPGTLARFLIDNPSEKITEIELRKRVKLEGKELEEYLEKEKLKKEAAKKLEQSKEADIDSSDESDIEEDIDQPSAHKTKHDLMMKGEGSRKGSFFKQAKKSYPMFPAPEERIKWDEYGEIIKPEDFLVPELQATEEEKSKLESGLTNGDEPMDQDLSDVPTKCISTTESIEIKARVTYIDYEGRSDGDSIKKIINQMKPRQLIIVHGPPEASQDLAECCRAFGGKDIKVYMPKLHETVDATSETHIYQVRLKDSLVSSLQFCKAKDAELAWIDGVLDMRVSKVDTGVILEEGELKDDGEDSEMQVEAPSDSSVIAQQKAMKSLFGDDEKETGEESEIIPTLEPLPPHEVPGHQSVFMNEPRLSDFKQVLLREGIQAEFVGGVLVCNNQVAVRRTETGRIGLEGCLCQDFYRIRDLLYEQYAIV
B2: Surf6 (protein, UniProt O75683 1-361)
chain: MASLLAKDAYLQSLAKKICSHSAPEQQARTRAGKTQGSETAGPPKKKRKKTQKKFRKREEKAAEHKAKSLGEKSPAASGARRPEAAKEEAAWASSSAGNPADGLATEPESVFALDVLRQRLHEKIQEARGQGSAKELSPAALEKRRRRKQERDRKKRKRKELRAKEKARKAEEATEAQEVVEATPEGACTEPREPPGLIFNKVEVSEDEPASKAQRRKEKRQRVKGNLTPLTGRNYRQLLERLQARQSRLDELRGQDEGKAQELEAKMKWTNLLYKAEGVKIRDDERLLQEALKRKEKRRAQRQRRWEKRTAGVVEKMQQRQDRRRQNLRRKKAARAERRLLRARKKGRILPQDLERAGLV
B3: Pycrl (protein, UniProt Q53H96 1-274)
chain: MAAAEPSPRRVGFVGAGRMAGAIAQGLIRAGKVEAQHILASAPTDRNLCHFQALGCRTTHSNQEVLQSCLLVIFATKPHVLPAVLAEVAPVVTTEHILVSVAAGVSLSTLEELLPPNTRVLRVLPNLPCVVQEGAIVMARGRHVGSSETKLLQHLLEACGRCEEVPEAYVDIHTGLSGSGVAFVCAFSEALAEGAVKMGMPSSLAHRIAAQTLLGTAKMLLHEGQHPAQLRSDVCTPGGTTIYGLHALEQGGLRAATMSAVEAATCRAKELSRK
B4: Picalm (protein, UniProt Q13492 1-652)
chain: MSGQSLTDRITAAQHSVTGSAVSKTVCKATTHEIMGPKKKHLDYLIQCTNEMNVNIPQLADSLFERTTNSSWVVVFKSLITTHHLMVYGNERFIQYLASRNTLFNLSNFLDKSGLQGYDMSTFIRRYSRYLNEKAVSYRQVAFDFTKVKRGADGVMRTMNTEKLLKTVPIIQNQMDALLDFNVNSNELTNGVINAAFMLLFKDAIRLFAAYNEGIINLLEKYFDMKKNQCKEGLDIYKKFLTRMTRISEFLKVAEQVGIDRGDIPDLSQAPSSLLDALEQHLASLEGKKIKDSTAASRATTLSNAVSSLASTGLSLTKVDEREKQAALEEEQARLKALKEQRLKELAKKPHTSLTTAASPVSTSAGGIMTAPAIDIFSTPSSSNSTSKLPNDLLDLQQPTFHPSVHPMSTASQVASTWGDPFSATVDAVDDAIPSLNPFLTKSSGDVHLSISSDVSTFTTRTPTHEMFVGFTPSPVAQPHPSAGLNVDFESVFGNKSTNVIVDSGGFDELGGLLKPTVASQNQNLPVAKLPPSKLVSDDLDSSLANLVGNLGIGNGTTKNDVNWSQPGEKKLTGGSNWQPKVAPTTAWNAATMAPPVMAYPATTPTGMIGYGIPPQMGSVPVMTQPTLIYSQPVMRPPNPFGPVSGAQIQFM
B5: Vcpip1 (protein, UniProt Q96JH7 1-1222)
chain: MSQPPPPPPPLPPPPPPPEAPQTPSSLASAAASGGLLKRRDRRILSGSCPDPKCQARLFFPASGSVSIECTECGQRHEQQQLLGVEEVTDPDVVLHNLLRNALLGVTGAPKKNTELVKVMGLSNYHCKLLSPILARYGMDKQTGRAKLLRDMNQGELFDCALLGDRAFLIEPEHVNTVGYGKDRSGSLLYLHDTLEDIKRANKSQECLIPVHVDGDGHCLVHAVSRALVGRELFWHALRENLKQHFQQHLARYQALFHDFIDAAEWEDIINECDPLFVPPEGVPLGLRNIHIFGLANVLHRPIILLDSLSGMRSSGDYSATFLPGLIPAEKCTGKDGHLNKPICIAWSSSGRNHYIPLVGIKGAALPKLPMNLLPKAWGVPQDLIKKYIKLEEDGGCVIGGDRSLQDKYLLRLVAAMEEVFMDKHGIHPSLVADVHQYFYRRTGVIGVQPEEVTAAAKKAVMDNRLHKCLLCGALSELHVPPEWLAPGGKLYNLAKSTHGQLRTDKNYSFPLNNLVCSYDSVKDVLVPDYGMSNLTACNWCHGTSVRKVRGDGSIVYLDGDRTNSRSTGGKCGCGFKHFWDGKEYDNLPEAFPITLEWGGRVVRETVYWFQYESDSSLNSNVYDVAMKLVTKHFPGEFGSEILVQKVVHTILHQTAKKNPDDYTPVNIDGAHAQRVGDVQGQESESQLPTKIILTGQKTKTLHKEELNMSKTERTIQQNITEQASVMQKRKTEKLKQEQKGQPRTVSPSTIRDGPSSAPATPTKAPYSPTTSKEKKIRITTNDGRQSMVTLKSSTTFFELQESIAREFNIPPYLQCIRYGFPPKELMPPQAGMEKEPVPLQHGDRITIEILKSKAEGGQSAAAHSAHTVKQEDIAVTGKLSSKELQEQAEKEMYSLCLLATLMGEDVWSYAKGLPHMFQQGGVFYSIMKKTMGMADGKHCTFPHLPGKTFVYNASEDRLELCVDAAGHFPIGPDVEDLVKEAVSQVRAEATTRSRESSPSHGLLKLGSGGVVKKKSEQLHNVTAFQGKGHSLGTASGNPHLDPRARETSVVRKHNTGTDFSNSSTKTEPSVFTASSSNSELIRIAPGVVTMRDGRQLDPDLVEAQRKKLQEMVSSIQASMDRHLRDQSTEQSPSDLPQRKTEVVSSSAKSGSLQTGLPESFPLTGGTENLNTETTDGCVADALGAAFATRSKAQRGNSVEELEEMDSQDAEMTNTTEPMDHS
B6: Luc7l2 (protein, UniProt Q9Y383 1-392)
chain: MSAQAQMRAMLDQLMGTSRDGDTTRQRIKFSDDRVCKSHLLNCCPHDVLSGTRMDLGECLKVHDLALRADYEIASKEQDFFFELDAMDHLQSFIADCDRRTEVAKKRLAETQEEISAEVAAKAERVHELNEEIGKLLAKVEQLGAEGNVEESQKVMDEVEKARAKKREAEEVYRNSMPASSFQQQKLRVCEVCSAYLGLHDNDRRLADHFGGKLHLGFIEIREKLEELKRVVAEKQEKRNQERLKRREEREREEREKLRRSRSHSKNPKRSRSREHRRHRSRSMSRERKRRTRSKSREKRHRHRSRSSSRSRSRSHQRSRHSSRDRSRERSKRRSSKERFRDQDLASCDRDRSSRDRSPRDRDRKDKKRSYESANGRSEDRRSSEEREAGEI
B7: Krt9 (protein, UniProt P35527 1-623)
chain: MSCRQFSSSYLSRSGGGGGGGLGSGGSIRSSYSRFSSSGGGGGGGRFSSSSGYGGGSSRVCGRGGGGSFGYSYGGGSGGGFSASSLGGGFGGGSRGFGGASGGGYSSSGGFGGGFGGGSGGGFGGGYGSGFGGFGGFGGGAGGGDGGILTANEKSTMQELNSRLASYLDKVQALEEANNDLENKIQDWYDKKGPAAIQKNYSPYYNTIDDLKDQIVDLTVGNNKTLLDIDNTRMTLDDFRIKFEMEQNLRQGVDADINGLRQVLDNLTMEKSDLEMQYETLQEELMALKKNHKEEMSQLTGQNSGDVNVEINVAPGKDLTKTLNDMRQEYEQLIAKNRKDIENQYETQITQIEHEVSSSGQEVQSSAKEVTQLRHGVQELEIELQSQLSKKAALEKSLEDTKNRYCGQLQMIQEQISNLEAQITDVRQEIECQNQEYSLLLSIKMRLEKEIETYHNLLEGGQEDFESSGAGKIGLGGRGGSGGSYGRGSRGGSGGSYGGGGSGGGYGGGSGSRGGSGGSYGGGSGSGGGSGGGYGGGSGGGHSGGSGGGHSGGSGGNYGGGSGSGGGSGGGYGGGSGSRGGSGGSHGGGSGFGGESGGSYGGGEEASGSGGGYGGGSGKSSHS
B8: Rrp1 (protein, UniProt P56182 1-461)
chain: MVSRVQLPPEIQLAQRLAGNEQVTRDRAVRKLRKYIVARTQRAAGGFTHDELLKVWKGLFYCMWMQDKPLLQEELGRTISQLVHAFQTTEAQHLFLQAFWQTMNREWTGIDRLRLDKFYMLMRMVLNESLKVLKMQGWEERQIEELLELLMTEILHPSSQAPNGVKSHFIEIFLEELTKVGAEELTADQNLKFIDPFCRIAARTKDSLVLNNITRGIFETIVEQAPLAIEDLLNELDTQDEEVASDSDESSEGGERGDALSQKRSEKPPAGSICRAEPEAGEEQAGDDRDSGGPVLQFDYEAVANRLFEMASRQSTPSQNRKRLYKVIRKLQDLAGGIFPEDEIPEKACRRLLEGRRQKKTKKQKRLLRLQQERGKGEKEPPSPGMERKRSRRRGVGADPEARAEAGEQPGTAERALLRDQPRGRGQRGARQRRRTPRPLTSARAKAANVQEPEKKKKRRE
B9: Trmt10c (protein, UniProt Q7L0Y3 40-403)
chain: MSSKIPAVTYPKNESTPPSEELELDKWKTTMKSSVQEECVSTISSSKDEDPLAATREFIEMWRLLGREVPEHITEEELKTLMECVSNTAKKKYLKYLYTKEKVKKARQIKKEMKAAAREEAKNIKLLETTEEDKQKNFLFLRLWDRNMDIAMGWKGAQAMQFGQPLVFDMAYENYMKRKELQNTVSQLLESEGWNRRNVDPFHIYFCNLKIDGALHRELVKRYQEKWDKLLLTSTEKSHVDLFPKDSIIYLTADSPNVMTTFRHDKVYVIGSFVDKSMQPGTSLAKAKRLNLATECLPLDKYLQWEIGNKNLTLDQMIRILLCLKNNGNWQEALQFVPKRKHTGFLEISQHSQEFINRLKKAKT

What follows are binders tested against Biotin-FOXC1 (mouse) (UniProt Q61572) (assay: affinity purification with mass spectrometry; streptavidin-agarose precipitation of biotinylated FOXC1 from nuclear extract of stable HEK293T cells (293T-Biotin-FOXC1); IP350 buffer (350 mM NaCl, 20 mM Tris-HCl pH 7.5, 0.5% NP40, 1 mM EDTA, 10% glycerin); SDS-PAGE, LC-ESI-MS/MS; proteins of the 293T-Biotin control deducted).

| Binder | binding |
| --- | --- |
| B1 | binds |
| B2 | binds |
| B3 | binds |
| B4 | binds |
| B5 | binds |
| B6 | binds |
| B7 | binds |
| B8 | binds |
| B9 | binds |
